Measured values taken from PubChem BioAssay AID1508600 (Functional Genomics Laboratory (NCATS/FGL), 2020).
Screen size: about 53,000 sequences; about 3,700 (7%) were called active.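 The calls were made as follows: active = gene knockdowns whose robust z-score for IL-1 alpha signal is at least 2 or at most -2, so actives lie on both sides; inactive = the rest.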 The list shows a part of the results.

test: Components of the Cytosolic LPS Sensing Pathway: Gene Identification via Genome-wide siRNA Screen; conditions: RAW264.7 macrophages, IL-1a HTRF, actives lie on both sides, screened at 100 nM (by protocol), cells primed 5 h with Pam3CSK4 first;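 also: robust z of the log signal after scaling to non-targeting control siRNA wells of the plate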
Summary of the method: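 Read-out: IL-1a HTRF on supernatant, divided by plate negative-control median ×100, log-transformed and converted to robust z-score. Cells were RAW264.7 given 100 nM siRNA, Pam3CSK4-primed 5 hours, then LipidA-transfected 24 hour.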

Row | Sequence | z-score
1 | CCGCUGGUGUGAUCACAAUTT against Slc5a2 | inactive: 0.0431
2 | GGCUGGAAAGGAGGAUACATT against Fbxl19 | inactive: -0.747
3 | CCUAGACAAUACUUGCCUGTT against Gpr180 | inactive: 0.873
4 | GGAUCACUGCUUUUACCACTT against Adam19 | inactive: 0.567
5 | GGAUCUUGAAGCCAAAUACTT against Ccdc127 | active: 2.56
6 | CCGUGUUUAAAGACAGUCCTT against Sun2 | inactive: -0.27
7 | GGAGAACUGUGUACGAUGGTT against Fam102a | inactive: -0.257
8 | CCACUGUAAAAGAUUUGGCTT against A730045E13Rik | inactive: 0.234
9 | CUCCUAUGGAACAUCUCCATT against Ndufs6 | inactive: 1
10 | GCAAGGCGCAUAAUGGGAGTT against Alox5ap | inactive: -1.41
11 | GGCCAGUCCAAAGACCAUCTT against Hsd3b7 | inactive: 1.95
12 | GGGAGUCUACACAUUAUAUTT against Ceacam10 | inactive: -0.484
13 | GGAUGAUCAAGACAAGCAGTT against Nobox | inactive: -0.763
14 | GGCUGGAAGAUGACCUGCATT against Tnni3k | inactive: 1.82
15 | GCAACAAUUGAGCAAUUCATT against Bag1 | inactive: -1.21
16 | GCAGCUUAGCCCAAAGAUCTT against Gstm6 | inactive: -0.62
17 | GCCAGAAGUGAAAAUCGAATT against Fkbp14 | inactive: 0.509
18 | CGGAAACCUUGCACAAUAUTT against Blcap | inactive: 0.35
19 | CCACCACAGCUGAAGUCAGTT against Fen1 | inactive: -1.08
20 | GGAGGAUAAGGAUGUCUCATT against Cfap69 | inactive: -1.14
21 | GGCUAAAUGAGCAAAAUCUTT against Bptf | inactive: -0.907
22 | GCAGCGAAAGGAUUGACAATT against Elovl5 | inactive: -0.395
23 | GCUUCCUGUGUCUAUUUAUTT against Tyw3 | inactive: 0.353
24 | GGAAGAGUUUAUGAUCCUCTT against Esrrb | inactive: 0.0523
25 | CCAAUCAGACACCUACAAGTT against Myo1f | inactive: 1.19
26 | GGAAAGUUUGCACUGUAAATT against Tiam2 | inactive: -0.207
27 | GGACUGUUUGGAUUGCAUATT against Dock7 | inactive: 0.891

Exported with tabs: part of the list above.
Row	Sequence	z-score
1	CCGCUGGUGUGAUCACAAUTT against Slc5a2	inactive: 0.0431
2	GGCUGGAAAGGAGGAUACATT against Fbxl19	inactive: -0.747
3	CCUAGACAAUACUUGCCUGTT against Gpr180	inactive: 0.873
4	GGAUCACUGCUUUUACCACTT against Adam19	inactive: 0.567
5	GGAUCUUGAAGCCAAAUACTT against Ccdc127	active: 2.56
6	CCGUGUUUAAAGACAGUCCTT against Sun2	inactive: -0.27
7	GGAGAACUGUGUACGAUGGTT against Fam102a	inactive: -0.257
8	CCACUGUAAAAGAUUUGGCTT against A730045E13Rik	inactive: 0.234
9	CUCCUAUGGAACAUCUCCATT against Ndufs6	inactive: 1
10	GCAAGGCGCAUAAUGGGAGTT against Alox5ap	inactive: -1.41
11	GGCCAGUCCAAAGACCAUCTT against Hsd3b7	inactive: 1.95

Additional results

Row | Sequence | z-score
28 | GCCUUUCUCGUUCCUAUAGTT against Plgrkt | active: -2.42
29 | CGCAGAAAGAAAUAGCAAUTT against B2m | inactive: -0.0651
30 | CCCAUAUUCUACACAUUCUTT against Gadd45gip1 | inactive: -0.246
31 | GGUGGUGUAAUAGCUAAGATT against Hspa12b | inactive: 0.000794
32 | CCAAUGUGGAUGAAUCGAATT against Pdcd11 | inactive: 0.529
33 | GCCACAGUCCAAAUCUGCATT against Odr4 | inactive: -0.751
34 | CCUGUCGUUCCUCCUUACATT against Sec11a | inactive: -1.29
35 | GCCUCGAGGACAAAACAUCTT against Amacr | inactive: -0.549
36 | GGUCCUGGAAUCUCAAAAUTT against Entpd1 | inactive: -0.506
37 | GCGAAACACAUAAUGAGUCTT against Ncaph | inactive: -0.211
38 | UGCUGUGGUCACUCCCAUGTT against Olfr457 | active: -2.04
39 | GCCAGUGAUUAGUGUUUAUTT against Vps37a | inactive: 0.53
40 | GGUAUAUGGAACCAUGGGATT against Psmb9 | inactive: -0.565
41 | GGAGUGACUCCUACAAAAUTT against Ms4a4b | active: -2.01
42 | GGAUGUGCGGAAGUUCAAATT against Acap3 | inactive: 1.82
43 | GCAGCAAUAUAAGGACAGUTT against Grin2b | inactive: 0.367
44 | GGAAUGUAUCCAGGACUUCTT against Brd4 | active: -2.46
45 | GGUCCAUUGGGAGUUUGAGTT against Slc2a6 | active: 3.14
46 | GGUGUUUGUUCGGAAGCUCTT against Pes1 | inactive: -0.345
47 | GGUACUUUAUAGGAACAGUTT against Zbtb41 | inactive: -0.973
48 | GGAAGUGCUACUUUCUGGGTT against Tmem178 | inactive: 1.74
49 | GGACUUACAGCUAAACAACTT against Qk | inactive: 0.427
50 | GGAGCUGGAGAGAUGUUAGTT against Anapc16 | inactive: -0.104
51 | GGUUGCCUUUCUGUCGUUCTT against Olfr558 | inactive: -1.83
52 | CCACUUGAACCAUGUAUUUTT against Skint2 | inactive: 1.5
53 | GGACCUGACCAGAAGAGCUTT against Acot3 | inactive: -0.928
54 | GCGCAGAUGGAUCCUAACATT against Tnfsf11 | inactive: -0.699
